# Reference: PubChem BioAssay AID493014 (National Center for Advancing Translational Sciences (NCATS), 2011)
# The other results are listed elsewhere or left out. These are further read-outs of the screen, such as a control signal, another cell line or another target. No call is given for them. Compounds called inactive in the main read-out are mostly missing here. Words in brackets tell the shape of the fitted curve; partial curves, single points and poor fits give uncertain potencies.
# Assay: qHTS Assay to Find Inhibitors of Chronic Active B-Cell Receptor Signaling
# Conditions: ABC-DLBCL IkBa-CBG/CBR reporter, luminescence ratio (green luciferase fused to IkBa over red control in TMD8 lymphoma cells), 4 h
# Method in brief: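 Concentration-response series (up to 46 uM) were applied to TMD8 dual-reporter cells for 4 h at 37C with doxycycline. Green/red ratio, after filter-overlap correction, defined %Activity; red signal alone was normalised to basal cells and zero luminescence.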
# [1] = measured here: CBR red luminescence, cell number
# [2] = measured here: IkBa-CBG green luminescence
Structure (SMILES),AC50 [1],AC50 [2]
COc1ccc(F)cc1S(=O)(=O)N1CCC2(CC1)OCCN2S(=O)(=O)c1cccs1,"18.4 µM [falling, partial curve, poor fit]",
CCOC(=O)CC1(C)SC(NC(C)=O)=NN1C(C)=O (configuration not stated),"31.6 µM [falling, single point]",
COc1ccc(N(CC(=O)N2CCCC(C)C2)S(=O)(=O)c2c(C)nn(C)c2C)cc1 (configuration not stated),"12.6 µM [rising, partial curve, poor fit]",
COC(=O)c1cccc(Nc2c(-c3cc(Br)ccc3O)nc3nc[nH]n23)c1,"31.6 µM [falling, partial curve, poor fit]",
COc1ccc(C2=NN(C(=O)CSc3nnc(-c4ccccc4F)o3)C(c3ccco3)C2)cc1 (configuration not stated),"29.1 µM [rising, single point]",
Cc1cc(C)cc(OCC(=O)Nc2ccc(-c3nc4ncccc4o3)cc2C)c1,"35.5 µM [rising, single point]",
O=C(CSc1n[nH]c(-c2ccccc2)n1)c1ccc(O)c(O)c1,"20 µM [falling, single point]",
O=c1cccc2n1Cc1cc3ccccc3nc1-2,"0.326 µM [falling, full curve, poor fit]",
CCOc1ccccc1NC(=O)c1c(NCc2ccc(OC)c(OC)c2OC)sc2c1CCC(C)C2 (configuration not stated),"17.8 µM [falling, single point]",
O=C(N/N=C/c1cccc(O)c1)c1ccc(NC(=O)c2cccc([N+](=O)[O-])c2)cc1,"22.4 µM [falling, partial curve, poor fit]",
O=C(Nc1nccs1)c1ccc(COc2ccccc2Br)o1,"23.1 µM [falling, partial curve, poor fit]","7.31 µM [rising, partial curve, poor fit]"
Cc1cc(N2CCOCC2)nc(-c2ccc(Br)cc2)n1,"20.6 µM [rising, partial curve]",
CC1CCCC(NS(=O)(=O)c2ccc3c(c2)OCCO3)C1C (configuration not stated),"35.5 µM [falling, single point]",
CCN(CC)C(=O)[C@H]1CC(CC(=O)NCc2ccco2)C(=O)N2CCc3c([nH]c4ccc(OC)cc34)[C@]12C (some centres not stated),"29.1 µM [rising, single point]",
Cc1ccc(C)c(Cn2c(=O)n(CCCC(=O)NCc3ccco3)c(=O)c3sccc32)c1,"0.103 µM [falling, full curve, poor fit]",
COc1ccc(/C=N/NC(=O)C2C3CCCCC32C)cc1OC (configuration not stated),"12.6 µM [rising, single point]","10 µM [falling, partial curve, poor fit]"
O=S(=O)(c1cccs1)N1CN(Cc2ccco2)c2nc3ccccc3nc21,"35.5 µM [falling, single point]",
Fc1ccc(Nc2nc(-c3cccnc3)cs2)cc1,"0.708 µM [rising, full curve, poor fit]",
CC(C)c1ccc(NC(=O)CNC(=O)Cn2cnc3ccccc3c2=O)cc1,"20 µM [rising, single point]",
CC(C)CCn1nc(C(=O)Nc2nc3c(s2)CCCC3)c2ccccc2c1=O,"18.4 µM [rising, partial curve]",
CCc1ccc(OC)c(S(=O)(=O)NCc2cccs2)c1,"0.146 µM [rising, full curve, poor fit]",
O=[N+]([O-])c1cccc(/C=C/c2nc(C=Nc3ccccc3)c(O)o2)c1,"8.2 µM [rising, single point]",
O=C(c1c[nH]c(C(=O)C(Cl)(Cl)Cl)c1)c1ccccc1F,"10 µM [falling, partial curve]",
O=C(O)CCC(=O)N1N=C(c2c(-c3ccccc3)c3cc(Cl)ccc3[nH]c2=O)CC1c1cccs1 (configuration not stated),"20.6 µM [falling, single point]",
CC1(C)CC(=O)C2=C(C1)N(Cc1ccco1)C(=O)C2(NC(=O)C1CCCCC1)C(F)(F)F (configuration not stated),"29.1 µM [falling, single point]",
C(=N\Nc1nc(Nc2ccccc2)nc(Nc2ccccc2)n1)/c1cccnc1,"1.58 µM [falling, full curve]",
Cc1cc(C)c(-n2c(SCCS(=O)(=O)c3ccc(F)cc3)n[nH]c2=O)c(C)c1,"17.8 µM [falling, partial curve, poor fit]",
Cc1cc(C)cc(N2C(=O)CC(Sc3nnnn3-c3ccccc3)C2=O)c1 (configuration not stated),"22.4 µM [falling, single point]",
CCOC(=O)c1sc2c(c1C)c(=O)c(C(=O)OCC)cn2CC,"17.8 µM [falling, partial curve, poor fit]",
Cc1ccc(NC(=O)CSc2nnc(C3CCCCC3)n2N)cc1F,"7.08 µM [falling, partial curve, poor fit]",

# Rewritten as tab-separated lines: part of the list above
Structure (SMILES)	AC50 [1]	AC50 [2]
COc1ccc(/C=N/NC(=O)C2C3CCCCC32C)cc1OC (configuration not stated)	12.6 µM [rising, single point]	10 µM [falling, partial curve, poor fit]
O=S(=O)(c1cccs1)N1CN(Cc2ccco2)c2nc3ccccc3nc21	35.5 µM [falling, single point]	
